Measured values as given in patent US9550768B2, “Kinase modulation and indications therefor” (PLEXXIKON INC., priority 2011, dated 2017).
pIC50: −log10 of the molar value. Some results were stated once for a whole list of compounds, not compound by compound.

Biological target: T1, FLT3-ITD (Homo sapiens, UniProt P36888)
T1 sequence (P36888 with tags, fused parts or gaps INS600HVDFREYEYD): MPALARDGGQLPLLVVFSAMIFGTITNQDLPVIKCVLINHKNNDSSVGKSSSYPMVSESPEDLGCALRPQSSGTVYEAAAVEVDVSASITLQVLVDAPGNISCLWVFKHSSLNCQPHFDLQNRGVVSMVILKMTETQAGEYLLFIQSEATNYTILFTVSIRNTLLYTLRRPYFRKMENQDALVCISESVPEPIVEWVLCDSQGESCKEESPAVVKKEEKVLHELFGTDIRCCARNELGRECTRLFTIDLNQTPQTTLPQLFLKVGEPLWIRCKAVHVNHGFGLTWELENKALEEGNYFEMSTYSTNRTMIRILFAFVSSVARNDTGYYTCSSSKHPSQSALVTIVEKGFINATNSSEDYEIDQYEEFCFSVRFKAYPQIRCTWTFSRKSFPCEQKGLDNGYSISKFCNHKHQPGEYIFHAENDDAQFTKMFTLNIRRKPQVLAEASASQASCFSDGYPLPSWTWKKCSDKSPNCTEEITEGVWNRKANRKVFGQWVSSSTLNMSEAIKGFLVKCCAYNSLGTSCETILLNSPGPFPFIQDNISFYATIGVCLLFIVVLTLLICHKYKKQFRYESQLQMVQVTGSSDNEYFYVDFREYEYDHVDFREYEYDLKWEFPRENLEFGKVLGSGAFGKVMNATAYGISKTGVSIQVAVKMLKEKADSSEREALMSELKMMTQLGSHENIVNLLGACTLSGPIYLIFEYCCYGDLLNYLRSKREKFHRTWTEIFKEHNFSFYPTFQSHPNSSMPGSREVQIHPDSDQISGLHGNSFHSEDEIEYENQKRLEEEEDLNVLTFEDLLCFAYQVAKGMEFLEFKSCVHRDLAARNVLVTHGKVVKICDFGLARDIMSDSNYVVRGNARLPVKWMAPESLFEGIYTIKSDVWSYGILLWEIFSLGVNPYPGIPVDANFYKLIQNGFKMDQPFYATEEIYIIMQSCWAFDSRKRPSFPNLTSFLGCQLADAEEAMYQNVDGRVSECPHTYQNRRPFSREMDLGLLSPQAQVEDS
Assay: Flt3 assays described in Example 3 (cell-based assays of Flt3-ITD kinase activity in MV-4-11 cells)
Conditions: read-out: IC50 in the Flt3 assays described above in Example 3

Row | Compound | pIC50
1 | COc1ccc(F)c(CNc2ccc(Cc3c[nH]c4ncccc34)cn2)c1 [Compound P-0371, (2-Fluoro-5-methoxy-benzyl)-[5-(1H-pyrrolo[2,3-b]pyridin-3-ylmethyl)-pyridin-2-yl]-amine] | > 6.00
2 | Cc1cc(F)ccc1CNc1ccc(Cc2c[nH]c3ncccc23)cn1 [Compound P-0372, (4-Fluoro-2-methyl-benzyl)-[5-(1H-pyrrolo[2,3-b]pyridin-3-ylmethyl)-pyridin-2-yl]-amine] | > 6.00
3 | Fc1cc(Cl)cc(CNc2ccc(Cc3c[nH]c4ncccc34)cn2)c1 [Compound P-0373, (3-Chloro-5-fluoro-benzyl)-[5-(1H-pyrrolo[2,3-b]pyridin-3-ylmethyl)-pyridin-2-yl]-amine] | > 6.00
4 | Fc1ccc(C(F)(F)F)c(CNc2ccc(Cc3c[nH]c4ncccc34)cn2)c1 [Compound P-0375, (5-Fluoro-2-trifluoromethyl-benzyl)-[5-(1H-pyrrolo[2,3-b]pyridin-3-ylmethyl)-pyridin-2-yl]-amine] | > 6.00
5 | FC(F)(F)COc1ncccc1CNc1ccc(Cc2c[nH]c3ncccc23)cn1 [Compound P-0376, [5-(1H-Pyrrolo[2,3-b]pyridin-3-ylmethyl)-pyridin-2-yl]-[2-(2,2,2-trifluoro-ethoxy)-pyridin-3-ylmethyl]-amine] | > 6.00
6 | CCCS(=O)(=O)Nc1cccc(CNc2ccc(Cc3c[nH]c4ncccc34)cn2)c1F [Compound P-0377, Propane-1-sulfonic acid (2-fluoro-3-{[5-(1H-pyrrolo[2,3-b]pyridin-3-ylmethyl)-pyridin-2-ylamino]-methyl}-phenyl)-amide] | > 6.00
7 | COc1ccc(CNc2ccc(Cc3c[nH]c4ncccc34)c(F)n2)cn1 [Compound P-0378, [6-Fluoro-5-(1H-pyrrolo[2,3-b]pyridin-3-ylmethyl)-pyridin-2-yl]-(6-methoxy-pyridin-3-ylmethyl)-amine] | > 6.00
8 | COc1ccc(CNc2ccc(Cc3c[nH]c4ncc(Cl)cc34)c(F)n2)cn1 [Compound P-0379, [5-(5-Chloro-1H-pyrrolo[2,3-b]pyridin-3-ylmethyl)-6-fluoro-pyridin-2-yl]-(6-methoxy-pyridin-3-ylmethyl)-amine] | > 6.00
9 | Fc1ccc(Cl)cc1CNc1ccc(Cc2c[nH]c3ncccc23)cn1 [Compound P-0382, (5-Chloro-2-fluoro-benzyl)-[5-(1H-pyrrolo[2,3-b]pyridin-3-ylmethyl)-pyridin-2-yl]-amine] | > 6.00
10 | CCc1ccccc1CNc1ccc(Cc2c[nH]c3ncccc23)cn1 [Compound P-0383, (2-Ethyl-benzyl)-[5-(1H-pyrrolo[2,3-b]pyridin-3-ylmethyl)-pyridin-2-yl]-amine] | > 6.00
11 | CNc1ncccc1CNc1ccc(Cc2c[nH]c3ncccc23)cn1 [Compound P-0385, Methyl-(3-{[5-(1H-pyrrolo[2,3-b]pyridin-3-ylmethyl)-pyridin-2-ylamino]-methyl}-pyridin-2-yl)-amine] | > 6.00
12 | CS(=O)(=O)c1ccc(CNc2ccc(Cc3c[nH]c4ncccc34)cn2)c(Cl)c1 [Compound P-0387, (2-Chloro-4-methanesulfonyl-benzyl)-[5-(1H-pyrrolo[2,3-b]pyridin-3-ylmethyl)-pyridin-2-yl]-amine] | > 6.00
13 | FC(F)Oc1ccccc1CNc1ncc(Cc2c[nH]c3ncc(Cl)cc23)cn1 [Compound P-0390, [5-(5-Chloro-1H-pyrrolo[2,3-b]pyridin-3-ylmethyl)-pyrimidin-2-yl]-(2-difluoromethoxy-benzyl)-amine] | > 6.00
14 | Fc1c(Cl)cccc1CNc1ncc(Cc2c[nH]c3ncc(Cl)cc23)cn1 [Compound P-0392, (3-Chloro-2-fluoro-benzyl)-[5-(5-chloro-1H-pyrrolo[2,3-b]pyridin-3-ylmethyl)-pyrimidin-2-yl]-amine] | > 6.00
15 | Fc1c(CNc2ncc(Cc3c[nH]c4ncc(Cl)cc34)cn2)cccc1C(F)(F)F [Compound P-0393, [5-(5-Chloro-1H-pyrrolo[2,3-b]pyridin-3-ylmethyl)-pyrimidin-2-yl]-(2-fluoro-3-trifluoromethyl-benzyl)-amine] | > 6.00
16 | Fc1cc(C(F)(F)F)ccc1CNc1ncc(Cc2c[nH]c3ncc(Cl)cc23)cn1 [Compound P-0394, [5-(5-Chloro-1H-pyrrolo[2,3-b]pyridin-3-ylmethyl)-pyrimidin-2-yl]-(2-fluoro-4-trifluoromethyl-benzyl)-amine] | > 6.00
17 | Fc1cccc(CNc2ncc(Cc3c[nH]c4ncc(Cl)cc34)cn2)c1F [Compound P-0395, [5-(5-Chloro-1H-pyrrolo[2,3-b]pyridin-3-ylmethyl)-pyrimidin-2-yl]-(2,3-difluoro-benzyl)-amine] | > 6.00
18 | Fc1ccc(CNc2ncc(Cc3c[nH]c4ncc(Cl)cc34)cn2)c(Cl)c1 [Compound P-0396, (2-Chloro-4-fluoro-benzyl)-[5-(5-chloro-1H-pyrrolo[2,3-b]pyridin-3-ylmethyl)-pyrimidin-2-yl]-amine] | > 6.00
19 | FC(F)(F)Oc1ccccc1CNc1ncc(Cc2c[nH]c3ncc(Cl)cc23)cn1 [Compound P-0402, [5-(5-Chloro-1H-pyrrolo[2,3-b]pyridin-3-ylmethyl)-pyrimidin-2-yl]-(2-trifluoromethoxy-benzyl)-amine] | > 6.00
20 | Fc1ccc(Cl)c(CNc2ncc(Cc3c[nH]c4ncccc34)cn2)c1 [Compound P-0407, (2-Chloro-5-fluoro-benzyl)-[5-(1H-pyrrolo[2,3-b]pyridin-3-ylmethyl)-pyrimidin-2-yl]-amine] | > 6.00
21 | Fc1ccc(Cl)c(CNc2ncc(Cc3c[nH]c4ncc(Cl)cc34)cn2)c1 [Compound P-0408, (2-Chloro-5-fluoro-benzyl)-[5-(5-chloro-1H-pyrrolo[2,3-b]pyridin-3-ylmethyl)-pyrimidin-2-yl]-amine] | > 6.00
22 | FC(F)(F)COc1ccc(CNc2ccc(Cc3c[nH]c4ncc(Cl)cc34)cn2)cn1 [Compound P-0409, [5-(5-Chloro-1H-pyrrolo[2,3-b]pyridin-3-ylmethyl)-pyridin-2-yl]-[6-(2,2,2-trifluoro-ethoxy)-pyridin-3-ylmethyl]-amine] | > 6.00
23 | O=C(Nc1cccc(F)c1)Nc1ccc(Cc2c[nH]c3ncccc23)cn1 [Compound P-0412, 1-(3-Fluoro-phenyl)-3-[5-(1H-pyrrolo[2,3-b]pyridin-3-ylmethyl)-pyridin-2-yl]-urea] | > 6.00
